Test results published in PMC10654515.
Results are given in words; binding and its absence hold for the method and conditions named. In cells and extracts the contact can be indirect. Some entries that bind do so weakly or less than the wild type.

Protein sequences, listed by entry. Tags and fused reporters are not part of them.
UniProt Q7KZF4: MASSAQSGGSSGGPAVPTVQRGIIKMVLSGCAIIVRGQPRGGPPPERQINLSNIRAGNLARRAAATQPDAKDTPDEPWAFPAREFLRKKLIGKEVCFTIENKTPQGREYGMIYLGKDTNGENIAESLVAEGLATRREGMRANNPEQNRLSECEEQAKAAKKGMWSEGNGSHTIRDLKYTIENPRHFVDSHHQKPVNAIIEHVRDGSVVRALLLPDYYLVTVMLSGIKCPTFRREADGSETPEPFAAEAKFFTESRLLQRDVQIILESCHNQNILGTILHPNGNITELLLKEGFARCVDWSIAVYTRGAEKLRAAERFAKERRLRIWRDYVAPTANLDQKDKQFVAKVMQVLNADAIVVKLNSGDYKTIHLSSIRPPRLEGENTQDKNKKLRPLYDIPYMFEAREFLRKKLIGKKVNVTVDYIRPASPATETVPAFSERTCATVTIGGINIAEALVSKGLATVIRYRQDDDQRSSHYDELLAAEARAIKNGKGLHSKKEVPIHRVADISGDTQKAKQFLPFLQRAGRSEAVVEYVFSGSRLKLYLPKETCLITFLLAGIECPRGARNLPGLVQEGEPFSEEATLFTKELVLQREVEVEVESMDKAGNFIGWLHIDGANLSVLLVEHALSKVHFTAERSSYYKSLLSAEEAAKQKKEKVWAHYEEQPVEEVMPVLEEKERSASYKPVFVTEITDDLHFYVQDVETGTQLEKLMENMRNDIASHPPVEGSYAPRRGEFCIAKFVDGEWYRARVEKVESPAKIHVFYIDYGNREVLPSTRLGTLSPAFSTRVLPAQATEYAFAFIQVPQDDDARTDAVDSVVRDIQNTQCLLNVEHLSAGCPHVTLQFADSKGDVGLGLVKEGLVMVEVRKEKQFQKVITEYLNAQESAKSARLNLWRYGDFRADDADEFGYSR

How the values were obtained:
[1] = biological target: SND1 (endogenous, VCaP cells) (human (endogenous in VCaP)) (UniProt Q7KZF4); assay: co-IP; endogenous proteins from VCaP lysate; primary antibodies (anti-SND1, anti-MTDH) and protein A/G beads at 4 °C; IP buffer 50 mM Tris-HCl pH 7.5, 1% Triton X-100, 50 mM NaCl, 0.1 mM EDTA; also after siRNA knockdown of SND1 or MTDH
[2] = biological target: SND1 (endogenous, VCaP cells) (human (endogenous in VCaP)) (UniProt Q7KZF4); assay: proximity ligation; Duolink PLA in fixed, permeabilised VCaP cells; anti-ERG together with anti-SND1 or anti-MTDH antibodies; confocal imaging

B1: ERG (endogenous, VCaP cells) (protein, UniProt P11308 1-479)
chain: MASTIKEALSVVSEDQSLFECAYGTPHLAKTEMTASSSSDYGQTSKMSPRVPQQDWLSQPPARVTIKMECNPSQVNGSRNSPDECSVAKGGKMVGSPDTVGMNYGSYMEEKHMPPPNMTTNERRVIVPADPTLWSTDHVRQWLEWAVKEYGLPDVNILLFQNIDGKELCKMTKDDFQRLTPSYNADILLSHLHYLRETPLPHLTSDDVDKALQNSPRLMHARNTGGAAFIFPNTSVYPEATQRITTRPDLPYEPPRRSAWTGHGHPTPQSKAAQPSPSTVPKTEDQRPQLDPYQILGPTSSRLANPGSGQIQLWQFLLELLSDSSNSSCITWEGTNGEFKMTDPDEVARRWGERKSKPNMNYDKLSRALRYYYDKNIMTKVHGKRYAYKFDFHGIAQALQPHPPESSLYKYPSDLPYMGSYHAHPQKMNFVAPHPPALPVTSSSFFAAPNPYWNSPTGGIYPNTRLPTSHMPSHLGTYY
B1 was tested, and the binding [1] was “binds” and the binding [2] was “binds”.
